The target of this experiment is Notch3 receptor (human (endogenous in SKOV3 and OAW42)) (UniProt Q9UM47). Kind of experiment: proximity ligation; SKOV3 and OAW42 cells, control or treated 24 h with 0.25 mg/ml recombinant COMP; fixed with 4% paraformaldehyde, permeabilised with 0.1% Triton X-100; primary antibodies to Notch3 and Jagged1, NaveniFlex GM; spots per cell counted by confocal microscopy.

The chains behind the UniProt entries cited, without tags or fusion partners. Residues count along the entry.
UniProt Q9UM47, residues 40-2321: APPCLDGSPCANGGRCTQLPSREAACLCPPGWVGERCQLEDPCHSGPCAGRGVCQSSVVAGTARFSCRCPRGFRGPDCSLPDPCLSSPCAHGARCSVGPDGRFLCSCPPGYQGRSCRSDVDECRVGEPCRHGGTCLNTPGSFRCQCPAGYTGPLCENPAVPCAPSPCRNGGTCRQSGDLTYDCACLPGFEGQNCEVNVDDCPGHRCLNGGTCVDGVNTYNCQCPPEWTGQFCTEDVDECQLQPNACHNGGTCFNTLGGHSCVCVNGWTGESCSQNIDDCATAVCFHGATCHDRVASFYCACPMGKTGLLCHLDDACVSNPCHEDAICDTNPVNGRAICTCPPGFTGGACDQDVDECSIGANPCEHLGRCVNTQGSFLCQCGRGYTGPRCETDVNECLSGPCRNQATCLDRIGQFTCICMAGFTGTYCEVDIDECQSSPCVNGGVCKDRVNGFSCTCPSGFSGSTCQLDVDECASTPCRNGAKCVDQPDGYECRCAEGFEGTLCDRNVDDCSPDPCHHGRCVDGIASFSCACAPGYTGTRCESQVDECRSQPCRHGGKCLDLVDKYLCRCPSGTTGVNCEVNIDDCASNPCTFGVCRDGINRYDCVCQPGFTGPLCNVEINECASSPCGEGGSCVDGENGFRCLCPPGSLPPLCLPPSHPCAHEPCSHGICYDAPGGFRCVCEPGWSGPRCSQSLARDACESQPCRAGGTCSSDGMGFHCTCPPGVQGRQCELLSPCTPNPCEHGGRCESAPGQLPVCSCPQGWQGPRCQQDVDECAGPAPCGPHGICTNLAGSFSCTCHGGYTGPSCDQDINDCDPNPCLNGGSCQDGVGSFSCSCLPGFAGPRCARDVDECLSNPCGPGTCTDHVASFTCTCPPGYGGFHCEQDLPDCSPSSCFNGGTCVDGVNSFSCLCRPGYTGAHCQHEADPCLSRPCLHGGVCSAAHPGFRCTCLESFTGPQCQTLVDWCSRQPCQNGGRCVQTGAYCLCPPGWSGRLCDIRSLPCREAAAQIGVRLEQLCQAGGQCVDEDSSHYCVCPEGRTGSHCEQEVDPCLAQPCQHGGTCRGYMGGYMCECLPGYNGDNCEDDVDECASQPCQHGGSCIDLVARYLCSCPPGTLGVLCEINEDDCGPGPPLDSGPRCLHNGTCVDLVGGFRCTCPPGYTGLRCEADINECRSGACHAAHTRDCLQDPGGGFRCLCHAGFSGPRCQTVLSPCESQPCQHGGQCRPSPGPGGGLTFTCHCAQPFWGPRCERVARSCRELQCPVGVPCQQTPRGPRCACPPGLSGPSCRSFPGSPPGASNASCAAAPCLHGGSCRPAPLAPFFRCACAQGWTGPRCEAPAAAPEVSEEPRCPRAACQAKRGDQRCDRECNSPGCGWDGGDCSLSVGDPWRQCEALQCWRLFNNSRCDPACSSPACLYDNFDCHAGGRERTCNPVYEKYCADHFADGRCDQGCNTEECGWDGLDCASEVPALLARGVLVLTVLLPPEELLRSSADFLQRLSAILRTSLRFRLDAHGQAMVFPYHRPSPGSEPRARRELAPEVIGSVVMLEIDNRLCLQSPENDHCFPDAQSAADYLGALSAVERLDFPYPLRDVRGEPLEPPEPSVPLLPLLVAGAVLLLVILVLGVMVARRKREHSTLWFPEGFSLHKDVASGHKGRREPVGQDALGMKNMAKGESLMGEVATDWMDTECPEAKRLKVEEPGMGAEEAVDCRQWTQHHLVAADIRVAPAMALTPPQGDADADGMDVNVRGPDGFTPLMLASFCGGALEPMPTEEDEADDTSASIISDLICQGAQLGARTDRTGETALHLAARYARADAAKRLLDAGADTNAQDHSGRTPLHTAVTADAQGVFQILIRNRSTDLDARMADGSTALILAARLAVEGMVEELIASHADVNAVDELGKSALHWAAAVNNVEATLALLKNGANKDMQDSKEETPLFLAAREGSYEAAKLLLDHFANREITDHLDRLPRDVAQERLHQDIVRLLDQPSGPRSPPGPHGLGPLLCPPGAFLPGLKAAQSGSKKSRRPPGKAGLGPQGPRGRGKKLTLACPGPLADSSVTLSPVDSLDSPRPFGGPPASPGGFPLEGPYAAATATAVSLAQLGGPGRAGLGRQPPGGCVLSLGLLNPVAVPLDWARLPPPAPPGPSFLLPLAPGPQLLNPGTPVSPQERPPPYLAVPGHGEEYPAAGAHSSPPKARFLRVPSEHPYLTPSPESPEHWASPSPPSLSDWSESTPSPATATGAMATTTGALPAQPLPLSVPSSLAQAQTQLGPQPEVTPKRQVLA
UniProt P78504, residues 34-1218: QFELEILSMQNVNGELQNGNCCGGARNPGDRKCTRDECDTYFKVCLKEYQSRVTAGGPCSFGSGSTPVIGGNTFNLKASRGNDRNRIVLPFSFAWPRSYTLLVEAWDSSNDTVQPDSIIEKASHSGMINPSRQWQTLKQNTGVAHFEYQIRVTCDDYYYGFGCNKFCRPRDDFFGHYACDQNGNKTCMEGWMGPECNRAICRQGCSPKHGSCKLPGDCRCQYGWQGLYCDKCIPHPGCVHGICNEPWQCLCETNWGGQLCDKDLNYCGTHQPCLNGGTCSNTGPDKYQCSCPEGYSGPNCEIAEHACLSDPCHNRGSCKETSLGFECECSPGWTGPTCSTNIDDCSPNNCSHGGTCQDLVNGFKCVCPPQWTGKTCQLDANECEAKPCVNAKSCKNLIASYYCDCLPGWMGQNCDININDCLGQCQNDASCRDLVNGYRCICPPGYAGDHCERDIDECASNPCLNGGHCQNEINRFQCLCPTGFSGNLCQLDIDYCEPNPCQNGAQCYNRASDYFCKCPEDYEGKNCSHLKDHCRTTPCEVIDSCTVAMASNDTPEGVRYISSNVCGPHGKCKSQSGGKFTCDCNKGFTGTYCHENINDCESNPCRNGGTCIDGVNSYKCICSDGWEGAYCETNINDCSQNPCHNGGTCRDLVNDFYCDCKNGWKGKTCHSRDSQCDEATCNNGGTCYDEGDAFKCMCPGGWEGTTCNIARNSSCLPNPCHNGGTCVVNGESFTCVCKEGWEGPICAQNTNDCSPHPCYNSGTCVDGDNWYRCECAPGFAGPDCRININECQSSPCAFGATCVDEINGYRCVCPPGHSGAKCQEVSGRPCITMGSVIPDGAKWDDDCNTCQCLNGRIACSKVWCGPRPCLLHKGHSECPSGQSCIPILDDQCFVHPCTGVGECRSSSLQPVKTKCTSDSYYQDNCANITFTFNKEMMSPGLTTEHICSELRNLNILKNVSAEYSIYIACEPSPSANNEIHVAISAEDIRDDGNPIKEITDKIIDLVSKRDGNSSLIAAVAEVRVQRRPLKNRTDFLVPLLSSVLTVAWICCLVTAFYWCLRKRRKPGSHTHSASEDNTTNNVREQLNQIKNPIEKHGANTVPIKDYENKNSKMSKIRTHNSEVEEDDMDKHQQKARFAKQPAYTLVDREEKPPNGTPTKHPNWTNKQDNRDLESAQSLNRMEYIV

These are yes or no findings as the source states them, for the method shown. Binding seen in cells or lysates may run through a third protein. Some results given as binding are weak or reduced against the parent protein; the word gives no strength.

Regarding “Jagged1 ligand (from UniProt P78504 34-1218)”, the binding result is “binds”.
